PubChem BioAssay AID493246 | Drosophila RNAi Screening Center – 2011
The screen tested about 21,000 reagents; below is an unselected part of those that have a named target and a result. In the full data, 429 (2%) got an active call. 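Values are raw and not normalised between plates; calls rest on per-plate z-scores that were not deposited.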 Not stated in the record: the amount of reagent, the time to read-out.

Aim: 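Genome-wide search for dsRNAs that reduce cell number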 (primary screen)
Cell system: Drosophila Kc and S2R+ cells
Reagents: long dsRNA against Drosophila genes
Read-out: 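Cell number per well after knock-down, printed as raw plate values; calls were based on per-plate z-scores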
Reading the numbers: Kc cell number and S2R+ cell number: higher = more cells remaining
Hit rule: 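Counted as a hit if cell number falls by a z-score of at least 3 within its plate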

CG5543 [DRSC04511]
- Kc cell number, rep 1: 1.31e6
- Kc cell number, rep 2: 1.39e6
- S2R+ cell number, rep 1: 1.06e6
- S2R+ cell number, rep 2: 1.05e6
- call: inactive

CG17377 [DRSC00950]
- Kc cell number, rep 1: 1.51e6
- Kc cell number, rep 2: 1.50e6
- S2R+ cell number, rep 1: 1.07e6
- S2R+ cell number, rep 2: 1.20e6
- call: inactive

CG17377 [DRSC02615]
- Kc cell number, rep 1: 1.27e6
- Kc cell number, rep 2: 1.34e6
- S2R+ cell number, rep 1: 6.57e5
- S2R+ cell number, rep 2: 8.62e5
- call: inactive

Top1 (Topoisomerase 1) [DRSC20295]
- Kc cell number, rep 1: 1.66e6
- Kc cell number, rep 2: 1.74e6
- S2R+ cell number, rep 1: 9.86e5
- S2R+ cell number, rep 2: 1.09e6
- call: inactive

GAPcenA (GTPase activating protein and centrosome-associated) [DRSC10771]
- Kc cell number, rep 1: 1.49e6
- Kc cell number, rep 2: 1.25e6
- S2R+ cell number, rep 1: 1.08e6
- S2R+ cell number, rep 2: 1.21e6
- call: inactive

hmw (hemingway) [DRSC16277]
- Kc cell number, rep 1: 1.61e6
- Kc cell number, rep 2: 1.70e6
- S2R+ cell number, rep 1: 1.29e6
- S2R+ cell number, rep 2: 1.35e6
- call: inactive

CG42553 [DRSC08356]
- Kc cell number, rep 1: 1.33e6
- Kc cell number, rep 2: 1.39e6
- S2R+ cell number, rep 1: 1.13e6
- S2R+ cell number, rep 2: 1.33e6
- call: inactive

Cds (CDP-diacylglycerol synthase) [DRSC10938]
- Kc cell number, rep 1: 1.41e6
- Kc cell number, rep 2: 1.41e6
- S2R+ cell number, rep 1: 1.31e6
- S2R+ cell number, rep 2: 1.30e6
- call: inactive

CG4607 [DRSC18375]
- Kc cell number, rep 1: 1.58e6
- Kc cell number, rep 2: 1.58e6
- S2R+ cell number, rep 1: 1.07e6
- S2R+ cell number, rep 2: 1.24e6
- call: inactive

CG5846 [DRSC02904]
- Kc cell number, rep 1: 1.33e6
- Kc cell number, rep 2: 1.39e6
- S2R+ cell number, rep 1: 1.10e6
- S2R+ cell number, rep 2: 1.20e6
- call: inactive

E(spl)m5-HLH (Enhancer of split m5, helix-loop-helix) [DRSC16695]
- Kc cell number, rep 1: 1.46e6
- Kc cell number, rep 2: 1.46e6
- S2R+ cell number, rep 1: 1.05e6
- S2R+ cell number, rep 2: 1.08e6
- call: inactive

Alms1a (Alstrom syndrome 1a) [DRSC18558]
- Kc cell number, rep 1: 1.44e6
- Kc cell number, rep 2: 1.42e6
- S2R+ cell number, rep 1: 1.03e6
- S2R+ cell number, rep 2: 1.10e6
- call: inactive

Tep5Psi (Thioester-containing protein 5 pseudogene) [DRSC02183]
- Kc cell number, rep 1: 1.61e6
- Kc cell number, rep 2: 1.72e6
- S2R+ cell number, rep 1: 1.29e6
- S2R+ cell number, rep 2: 4.11e5
- call: inactive

Tep5Psi (Thioester-containing protein 5 pseudogene) [DRSC02184]
- Kc cell number, rep 1: 1.68e6
- Kc cell number, rep 2: 1.78e6
- S2R+ cell number, rep 1: 1.34e6
- S2R+ cell number, rep 2: 3.97e5
- call: inactive

l(3)72Dn (lethal (3) 72Dn) [DRSC10468]
- Kc cell number, rep 1: 1.62e6
- Kc cell number, rep 2: 1.69e6
- S2R+ cell number, rep 1: 1.47e6
- S2R+ cell number, rep 2: 1.54e6
- call: inactive

daed (daedalus) [DRSC00299]
- Kc cell number, rep 1: 1.33e6
- Kc cell number, rep 2: 1.37e6
- S2R+ cell number, rep 1: 6.43e5
- S2R+ cell number, rep 2: 6.84e5
- call: inactive

Cpr97Eb (Cuticular protein 97Eb) [DRSC15123]
- Kc cell number, rep 1: 1.39e6
- Kc cell number, rep 2: 1.45e6
- S2R+ cell number, rep 1: 1.02e6
- S2R+ cell number, rep 2: 1.03e6
- call: inactive

CG31122 [DRSC14787]
- Kc cell number, rep 1: 1.36e6
- Kc cell number, rep 2: 1.40e6
- S2R+ cell number, rep 1: 9.60e5
- S2R+ cell number, rep 2: 1.06e6
- call: inactive

CG31122 [DRSC16286]
- Kc cell number, rep 1: 1.26e6
- Kc cell number, rep 2: 1.18e6
- S2R+ cell number, rep 1: 1.09e6
- S2R+ cell number, rep 2: 1.20e6
- call: inactive

Unc50 (Unc50 RNA binding protein) [DRSC16561]
- Kc cell number, rep 1: 1.43e6
- Kc cell number, rep 2: 1.51e6
- S2R+ cell number, rep 1: 1.33e6
- S2R+ cell number, rep 2: 1.45e6
- call: inactive

Gbp3 (Growth-blocking peptide 3) [DRSC15206]
- Kc cell number, rep 1: 1.55e6
- Kc cell number, rep 2: 1.53e6
- S2R+ cell number, rep 1: 1.04e6
- S2R+ cell number, rep 2: 1.11e6
- call: inactive
